The data set deals with S. pyogenes 02C0203. The data set can be described thus: AUC/MIC ratios required for efficacy (PK-PD). It is filed as in vivo, mice. The conditions noted are these: last column of Table 4, AUC/MIC ratios required for efficacy. The protocol: In this example, the plasma concentrations of selected compounds were determined in mice that were infected with S. pyogenes 02C0203 at an oral dose of 100 mg/kg^4. Plasma samples were assayed for selected compounds using LC/MS/MS with multiple reaction monitoring. Free fractions were measured using equilibrium dialysis^5.
Separate groups of immunosuppressed mice were infected as above and orally dosed 2 hours post-infection with 100 mg/kg of the selected compounds. Thigh tissue samples (10% in PBS) and plasma were collected at 0.5, 1, 2, 4, 8 and 24 hours post-dose (n=3) for quantitation of drug levels. Bacterial burden was quantitated in the thigh tissue samples from treated mice and from infected, untreated mice at each timepoint.

On to `CCc1coc(-c2cc3c(c(F)c2F)N2C[C@H](C)O[C@H](C)[C@H]2C2(C3)C(=O)NC(=O)NC2=O)n1` (racemic) [Example 9, (2S,4R,4aR)-8-(4-ethyloxazol-2-yl)-9,10-difluoro-2,4-dimethyl-2,4,4a,6-tetrahydro-1H,1′H-spiro[[1,4]oxazino[4,3-a]quinoline-5,5′-pyrimidine]-2′,4′,6′(3′H)-trione], for which the fAUC stood at 4. In the case of `Cc1coc(-c2cc(F)c3c(c2)CC2(C(=O)NC(=O)NC2=O)[C@H]2[C@H](C)O[C@H](C)CN32)n1` (single isomer, unassigned) [Example 1], the fAUC amounted to 2.

The values above are taken from patent publication US8952149B2, “Tricyclic tetrahydroquinoline antibacterial agents” (Zoetis LLC, priority 2012, dated 2015).
